Measurements taken from the supplement of paper PMC10849652.
The list shows a part of the results.

The chains behind the UniProt entries cited, without tags or fusion partners. Where a name states a change or a piece, a line headed by the entry shows the natural chain unless it says otherwise.
UniProt Q14108: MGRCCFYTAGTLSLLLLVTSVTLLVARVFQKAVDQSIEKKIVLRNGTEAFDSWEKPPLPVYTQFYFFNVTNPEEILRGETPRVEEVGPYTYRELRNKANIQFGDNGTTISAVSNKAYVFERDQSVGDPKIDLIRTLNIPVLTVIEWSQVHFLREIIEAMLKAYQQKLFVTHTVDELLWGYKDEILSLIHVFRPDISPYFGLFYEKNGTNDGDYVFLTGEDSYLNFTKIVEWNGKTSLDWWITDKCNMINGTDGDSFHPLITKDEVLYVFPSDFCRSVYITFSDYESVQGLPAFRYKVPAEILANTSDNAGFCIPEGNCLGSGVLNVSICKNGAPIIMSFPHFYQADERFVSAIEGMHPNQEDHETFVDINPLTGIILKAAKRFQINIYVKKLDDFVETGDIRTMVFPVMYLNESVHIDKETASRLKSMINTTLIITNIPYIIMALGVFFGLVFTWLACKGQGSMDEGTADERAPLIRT
UniProt O60613, whole entry, looked up: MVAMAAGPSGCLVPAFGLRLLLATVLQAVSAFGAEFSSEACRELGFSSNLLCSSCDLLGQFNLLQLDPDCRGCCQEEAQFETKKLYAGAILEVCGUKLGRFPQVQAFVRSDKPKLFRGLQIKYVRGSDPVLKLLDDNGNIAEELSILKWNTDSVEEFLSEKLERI
UniProt Q99719: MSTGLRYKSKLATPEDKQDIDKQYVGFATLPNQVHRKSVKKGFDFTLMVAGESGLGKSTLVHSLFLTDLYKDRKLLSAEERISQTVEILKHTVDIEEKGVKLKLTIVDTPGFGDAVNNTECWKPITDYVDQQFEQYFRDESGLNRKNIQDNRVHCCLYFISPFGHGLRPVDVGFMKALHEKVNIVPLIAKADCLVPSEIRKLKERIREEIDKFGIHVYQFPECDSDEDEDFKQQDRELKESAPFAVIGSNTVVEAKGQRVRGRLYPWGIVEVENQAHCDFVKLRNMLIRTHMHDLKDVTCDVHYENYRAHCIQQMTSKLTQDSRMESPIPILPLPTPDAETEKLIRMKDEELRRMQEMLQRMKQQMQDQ
UniProt Q9HCN8: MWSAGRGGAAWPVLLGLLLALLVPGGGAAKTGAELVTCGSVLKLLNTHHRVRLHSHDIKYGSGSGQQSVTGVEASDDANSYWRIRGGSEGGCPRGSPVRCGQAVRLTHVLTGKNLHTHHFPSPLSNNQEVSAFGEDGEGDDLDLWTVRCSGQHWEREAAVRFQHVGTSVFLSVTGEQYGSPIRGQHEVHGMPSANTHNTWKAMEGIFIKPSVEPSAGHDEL
UniProt Q15436: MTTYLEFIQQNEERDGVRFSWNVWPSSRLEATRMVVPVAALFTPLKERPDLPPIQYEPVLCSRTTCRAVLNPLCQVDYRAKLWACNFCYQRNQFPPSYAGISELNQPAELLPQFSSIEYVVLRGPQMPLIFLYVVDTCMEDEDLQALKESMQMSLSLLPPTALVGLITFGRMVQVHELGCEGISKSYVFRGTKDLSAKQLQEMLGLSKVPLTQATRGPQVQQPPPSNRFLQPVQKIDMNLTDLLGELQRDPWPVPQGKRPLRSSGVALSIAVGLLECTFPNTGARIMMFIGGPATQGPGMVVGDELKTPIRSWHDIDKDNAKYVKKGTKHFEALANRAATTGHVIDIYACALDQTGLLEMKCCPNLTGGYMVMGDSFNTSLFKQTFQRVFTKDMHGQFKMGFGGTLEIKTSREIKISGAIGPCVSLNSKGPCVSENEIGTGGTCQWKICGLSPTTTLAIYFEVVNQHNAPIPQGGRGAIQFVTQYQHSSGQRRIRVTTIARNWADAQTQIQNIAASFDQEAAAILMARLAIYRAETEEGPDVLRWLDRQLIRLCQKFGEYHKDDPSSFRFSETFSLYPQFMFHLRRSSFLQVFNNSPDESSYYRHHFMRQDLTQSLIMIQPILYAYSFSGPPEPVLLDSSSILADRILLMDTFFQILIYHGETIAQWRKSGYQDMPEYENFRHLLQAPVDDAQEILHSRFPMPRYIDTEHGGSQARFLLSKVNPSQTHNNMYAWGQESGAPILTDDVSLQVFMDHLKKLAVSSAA
UniProt Q6IQ49: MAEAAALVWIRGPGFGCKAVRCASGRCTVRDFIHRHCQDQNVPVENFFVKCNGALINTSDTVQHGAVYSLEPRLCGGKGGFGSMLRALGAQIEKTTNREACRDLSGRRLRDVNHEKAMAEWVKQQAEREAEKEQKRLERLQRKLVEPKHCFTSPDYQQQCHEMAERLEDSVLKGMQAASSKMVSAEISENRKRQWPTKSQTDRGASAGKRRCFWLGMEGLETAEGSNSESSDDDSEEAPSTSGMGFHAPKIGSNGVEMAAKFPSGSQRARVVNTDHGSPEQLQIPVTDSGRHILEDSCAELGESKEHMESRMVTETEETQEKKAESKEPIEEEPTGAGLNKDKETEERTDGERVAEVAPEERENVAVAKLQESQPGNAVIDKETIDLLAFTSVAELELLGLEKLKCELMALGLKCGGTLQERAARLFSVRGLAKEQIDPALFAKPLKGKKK
UniProt O43819: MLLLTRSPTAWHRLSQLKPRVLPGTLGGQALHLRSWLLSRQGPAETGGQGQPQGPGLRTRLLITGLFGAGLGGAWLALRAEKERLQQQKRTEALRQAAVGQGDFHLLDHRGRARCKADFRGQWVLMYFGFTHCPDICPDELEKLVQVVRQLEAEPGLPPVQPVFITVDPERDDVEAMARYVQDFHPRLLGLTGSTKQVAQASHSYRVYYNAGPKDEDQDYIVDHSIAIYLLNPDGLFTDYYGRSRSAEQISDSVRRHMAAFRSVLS
UniProt Q9NVA2: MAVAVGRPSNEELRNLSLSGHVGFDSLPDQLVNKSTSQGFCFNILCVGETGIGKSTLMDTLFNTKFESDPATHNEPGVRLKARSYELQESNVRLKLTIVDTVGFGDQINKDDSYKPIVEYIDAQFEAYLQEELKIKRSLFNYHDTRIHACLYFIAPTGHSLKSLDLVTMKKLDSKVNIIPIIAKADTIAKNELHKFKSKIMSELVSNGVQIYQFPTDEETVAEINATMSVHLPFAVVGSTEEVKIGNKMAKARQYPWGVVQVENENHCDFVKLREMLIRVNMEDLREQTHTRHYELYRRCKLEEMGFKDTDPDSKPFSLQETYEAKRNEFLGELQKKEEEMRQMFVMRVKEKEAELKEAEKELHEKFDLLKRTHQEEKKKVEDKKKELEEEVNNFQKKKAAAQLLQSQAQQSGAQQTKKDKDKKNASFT
UniProt Q9HD40: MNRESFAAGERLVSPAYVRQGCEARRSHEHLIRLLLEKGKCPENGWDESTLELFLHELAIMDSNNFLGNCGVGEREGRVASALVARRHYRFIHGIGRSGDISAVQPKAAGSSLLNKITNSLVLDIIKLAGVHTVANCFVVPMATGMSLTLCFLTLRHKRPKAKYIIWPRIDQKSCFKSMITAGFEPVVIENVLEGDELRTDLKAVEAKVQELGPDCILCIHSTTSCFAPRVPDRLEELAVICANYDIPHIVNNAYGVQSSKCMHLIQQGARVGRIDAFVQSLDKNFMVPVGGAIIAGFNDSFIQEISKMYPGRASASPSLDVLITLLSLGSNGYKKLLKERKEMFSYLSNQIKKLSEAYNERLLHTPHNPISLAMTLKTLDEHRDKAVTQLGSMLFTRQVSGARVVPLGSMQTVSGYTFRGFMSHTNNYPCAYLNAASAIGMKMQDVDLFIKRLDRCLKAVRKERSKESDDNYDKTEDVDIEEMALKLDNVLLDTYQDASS
UniProt Q96EE3: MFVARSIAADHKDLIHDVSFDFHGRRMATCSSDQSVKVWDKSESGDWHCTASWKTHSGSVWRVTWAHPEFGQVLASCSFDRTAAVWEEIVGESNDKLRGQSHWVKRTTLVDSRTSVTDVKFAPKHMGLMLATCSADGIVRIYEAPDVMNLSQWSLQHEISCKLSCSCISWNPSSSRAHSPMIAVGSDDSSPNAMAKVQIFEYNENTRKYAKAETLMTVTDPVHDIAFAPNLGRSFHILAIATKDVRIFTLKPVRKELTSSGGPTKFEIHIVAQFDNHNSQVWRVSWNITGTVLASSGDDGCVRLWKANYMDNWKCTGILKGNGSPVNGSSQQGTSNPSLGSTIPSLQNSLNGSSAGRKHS
UniProt Q9UBV2: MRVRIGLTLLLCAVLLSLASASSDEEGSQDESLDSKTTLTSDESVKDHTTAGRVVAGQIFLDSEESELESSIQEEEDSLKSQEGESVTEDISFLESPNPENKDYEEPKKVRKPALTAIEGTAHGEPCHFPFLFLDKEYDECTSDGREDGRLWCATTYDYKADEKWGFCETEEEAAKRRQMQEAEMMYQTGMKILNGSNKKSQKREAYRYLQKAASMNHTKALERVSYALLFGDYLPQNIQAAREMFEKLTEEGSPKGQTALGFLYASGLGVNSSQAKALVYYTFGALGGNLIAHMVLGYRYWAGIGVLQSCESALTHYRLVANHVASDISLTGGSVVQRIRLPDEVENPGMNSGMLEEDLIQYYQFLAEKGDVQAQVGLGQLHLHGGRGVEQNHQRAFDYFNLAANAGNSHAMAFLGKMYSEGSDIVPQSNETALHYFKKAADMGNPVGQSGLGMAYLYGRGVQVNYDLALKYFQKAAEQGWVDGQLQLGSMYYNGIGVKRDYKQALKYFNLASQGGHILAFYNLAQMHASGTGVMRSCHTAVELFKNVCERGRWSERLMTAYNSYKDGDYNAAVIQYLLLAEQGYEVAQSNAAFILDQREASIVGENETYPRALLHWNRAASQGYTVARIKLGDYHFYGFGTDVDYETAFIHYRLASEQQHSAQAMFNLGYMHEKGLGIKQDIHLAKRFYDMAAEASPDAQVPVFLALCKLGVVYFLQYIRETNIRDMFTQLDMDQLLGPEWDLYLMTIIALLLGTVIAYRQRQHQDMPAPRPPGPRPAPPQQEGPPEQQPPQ
UniProt Q12770: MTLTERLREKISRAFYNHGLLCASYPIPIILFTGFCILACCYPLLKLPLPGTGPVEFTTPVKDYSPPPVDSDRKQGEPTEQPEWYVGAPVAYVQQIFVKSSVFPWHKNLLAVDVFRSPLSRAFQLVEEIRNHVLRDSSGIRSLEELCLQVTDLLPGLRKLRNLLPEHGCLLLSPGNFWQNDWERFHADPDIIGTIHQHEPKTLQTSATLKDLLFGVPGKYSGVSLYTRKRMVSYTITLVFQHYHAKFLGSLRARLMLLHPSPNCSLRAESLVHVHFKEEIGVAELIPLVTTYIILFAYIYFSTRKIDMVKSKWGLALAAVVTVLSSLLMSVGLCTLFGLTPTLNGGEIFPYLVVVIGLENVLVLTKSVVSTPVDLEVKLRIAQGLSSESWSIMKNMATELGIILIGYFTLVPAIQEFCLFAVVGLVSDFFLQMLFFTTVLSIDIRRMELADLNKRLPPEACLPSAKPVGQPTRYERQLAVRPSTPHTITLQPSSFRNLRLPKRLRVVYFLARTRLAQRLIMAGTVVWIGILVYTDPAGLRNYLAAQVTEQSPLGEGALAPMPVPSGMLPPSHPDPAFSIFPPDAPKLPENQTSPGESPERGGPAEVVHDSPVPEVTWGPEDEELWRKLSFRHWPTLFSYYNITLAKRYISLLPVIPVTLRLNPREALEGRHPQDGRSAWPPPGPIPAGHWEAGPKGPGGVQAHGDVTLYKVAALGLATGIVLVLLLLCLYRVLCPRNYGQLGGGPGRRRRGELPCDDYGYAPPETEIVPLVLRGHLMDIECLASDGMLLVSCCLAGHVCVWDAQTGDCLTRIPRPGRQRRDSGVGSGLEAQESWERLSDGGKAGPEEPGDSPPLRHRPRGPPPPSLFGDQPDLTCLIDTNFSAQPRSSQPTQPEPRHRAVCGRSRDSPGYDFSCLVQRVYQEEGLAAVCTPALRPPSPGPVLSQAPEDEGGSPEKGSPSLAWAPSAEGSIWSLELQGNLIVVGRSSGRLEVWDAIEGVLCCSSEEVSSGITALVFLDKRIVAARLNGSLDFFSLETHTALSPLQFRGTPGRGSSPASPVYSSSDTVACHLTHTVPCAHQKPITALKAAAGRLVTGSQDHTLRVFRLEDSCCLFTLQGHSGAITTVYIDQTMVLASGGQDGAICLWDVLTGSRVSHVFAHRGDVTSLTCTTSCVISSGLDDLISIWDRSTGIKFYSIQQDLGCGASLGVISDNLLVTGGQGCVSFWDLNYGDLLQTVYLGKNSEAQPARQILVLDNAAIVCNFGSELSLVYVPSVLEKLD
UniProt Q9Y512: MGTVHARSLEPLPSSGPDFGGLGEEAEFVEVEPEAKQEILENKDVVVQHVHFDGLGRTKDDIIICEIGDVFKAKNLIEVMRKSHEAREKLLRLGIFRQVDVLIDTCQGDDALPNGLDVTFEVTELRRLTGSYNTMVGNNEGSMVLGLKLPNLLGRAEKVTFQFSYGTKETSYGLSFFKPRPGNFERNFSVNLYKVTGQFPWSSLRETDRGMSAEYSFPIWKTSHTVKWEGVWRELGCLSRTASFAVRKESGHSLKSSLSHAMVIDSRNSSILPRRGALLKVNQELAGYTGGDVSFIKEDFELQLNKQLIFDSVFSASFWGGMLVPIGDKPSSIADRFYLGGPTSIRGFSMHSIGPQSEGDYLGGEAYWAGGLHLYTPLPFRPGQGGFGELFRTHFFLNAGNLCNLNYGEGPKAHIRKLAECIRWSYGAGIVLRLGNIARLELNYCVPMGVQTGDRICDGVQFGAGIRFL

What was measured:
Test in all cases: log2 fold change, soluble protein after heating vs DMSO (PISA); higher = thermal stabilisation; K562 lysate, 10 uM; active = over 0.2 and 3.5 SD of the protein, either way, in both replicates (recomputed)
[1] = compound: C1=CC=C(C=C1)[C@H](COC2=CC3=C(C=C2)NC(=O)N3)NC(=O)C4=CC=CN(C4=O)CC5=CC(=C(C=C5)F)F
Summary of the method: (§1)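 A 30 min treatment with 10 μM compound was applied to crude K562 extract at 1 mg/mL protein in PBS pH 7.4 with 1 mM MgCl2. Heating for 3 min spanned 48°C-58°C, after which aliquots were pooled, adjusted to 0.5% NP-40 at 4°C and spun at 21,000xg for 90 min. TMTpro 16plex LC-MS/MS of the supernatant, with channel sums equalised, gave values recorded as log-two fold change in thermal stability against solvent controls, from duplicates.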

[2] = compound: CC1=C(SC2=C1C(=N[C@H](C3=NN=C(N32)C)CC(=O)N)C4=CC=C(C=C4)Cl)C
Summary of the method: as §1

[3] = compound: CC1=C2C(=CC=C1)N=C(N(C2=O)C3=CC=CC=C3C)CN4C=NC5=C(N=CN=C54)N
Summary of the method: as §1

[4] = compound: Cc1sc2c(c1C)C(c1ccc(Cl)cc1)=N[C@@H](CC(=O)OC(C)(C)C)c1nnc(C)n1-2
Summary of the method: as §1

[5] = compound: c1ccc([C@@H]2C[C@H]2NC2CCNCC2)cc1
Summary of the method: as §1

Measured: log2 fold change

SCARB2 (UniProt Q14108)
inactive: [1] 0.034 | [2] 0.022 | [3] -0.029 | [4] -0.002 | [5] 0.074

SELENOF (UniProt O60613)
inactive: [1] -0.005 | [2] -0.011 | [3] -0.008 | [4] -0.019 | [5] -0.005

SEPTIN5 (UniProt Q99719)
inactive: [1] 0.019 | [2] -0.023 | [3] 0.004 | [4] 0.01 | [5] 0.059

SCAMP2 (UniProt O15127)
inactive: [1] 0.043 | [2] 0.077 | [3] -0.045 | [4] -0.079 | [5] -0.001

SDF2L1 (UniProt Q9HCN8)
inactive: [1] 0.01 | [2] 0.006 | [3] 0 | [4] 0.022 | [5] -0.041

SCAF8 (UniProt Q9UPN6)
inactive: [1] -0.091 | [2] 0.012 | [3] 0.04 | [4] 0.041 | [5] 0.095

SEC61B (UniProt P60468)
inactive: [1] 0.09 | [2] -0.032 | [3] -0.026 | [4] 0.013 | [5] -0.036

SCARB1 isoform 2 (UniProt Q8WTV0)
inactive: [1] 0.015 | [2] 0.027 | [3] -0.009 | [4] -0.06 | [5] -0.026

SEC23A (UniProt Q15436)
inactive: [1] -0.002 | [2] -0.033 | [3] -0.035 | [4] -0.003 | [5] 0.103

SEC13 isoform 3 (UniProt P55735)
inactive: [1] 0.022 | [2] -0.013 | [3] -0.001 | [4] -0.029 | [5] 0.191

SEC63 (UniProt Q9UGP8)
inactive: [1] 0.026 | [2] -0.009 | [3] 0.018 | [4] -0.011 | [5] -0.034

SAMSN1 (UniProt Q9NSI8)
inactive: [1] 0.008 | [2] 0.007 | [3] -0.012 | [4] 0.014 | [5] -0.007

SDHAF4 (UniProt Q5VUM1)
inactive: [1] 0.032 | [2] -0.024 | [3] 0.115 | [4] -0.09 | [5] -0.015

SAR1B (UniProt Q9Y6B6)
inactive: [1] -0.006 | [2] -0.007 | [3] -0.01 | [4] -0.068 | [5] 0.052

SDE2 (UniProt Q6IQ49)
inactive: [1] 0.042 | [2] -0.032 | [3] 0.045 | [4] 0.005 | [5] -0.009

SCO2 (UniProt O43819)
inactive: [1] 0.026 | [2] 0.002 | [3] 0.037 | [4] 0.011 | [5] -0.074

SCLT1 (UniProt Q96NL6)
inactive: [1] 0.039 | [2] 0.003 | [3] 0.073 | [4] 0.024 | [5] 0.15

SEPTIN11 isoform 2 (UniProt Q9NVA2)
inactive: [1] 0.03 | [2] -0.024 | [3] 0.007 | [4] -0.028 | [5] 0.012

SCRIB (UniProt Q14160)
inactive: [1] -0.048 | [2] -0.023 | [3] 0.02 | [4] 0.023 | [5] -0.012

SAP30BP (UniProt Q9UHR5)
inactive: [1] 0.055 | [2] 0 | [3] 0 | [4] 0.013 | [5] -0.02

SEC31A (UniProt D6REX3)
inactive: [1] -0.021 | [2] 0.024 | [3] 0 | [4] 0.008 | [5] 0.016

SEPSECS (UniProt Q9HD40)
inactive: [1] 0.059 | [2] 0.01 | [3] 0.029 | [4] -0.018 | [5] -0.065

SEL1L3 (UniProt Q68CR1)
inactive: [1] -0.025 | [2] 0.021 | [3] 0.028 | [4] 0.034 | [5] 0.005

SAR1A (UniProt Q9NR31)
inactive: [1] 0.066 | [2] 0.038 | [3] 0.005 | [4] -0.116 | [5] -0.009

SCRN2 (UniProt Q96FV2)
inactive: [1] 0.027 | [2] -0.001 | [3] 0.178 | [4] -0.003 | [5] -0.046

SEH1L isoform 1 (UniProt Q96EE3)
inactive: [1] 0.016 | [2] 0.031 | [3] -0.045 | [4] -0.041 | [5] -0.028

SDHA (UniProt P31040)
inactive: [1] 0.114 | [2] -0.012 | [3] -0.012 | [4] 0.005 | [5] -0.007

SEC24B isoform 3 (UniProt O95487)
inactive: [1] -0.008 | [2] 0.001 | [3] 0.012 | [4] 0.049 | [5] 0.129

SEL1L (UniProt Q9UBV2)
inactive: [1] 0.022 | [2] -0.005 | [3] 0.03 | [4] -0.07 | [5] 0.006

SEC16A isoform 5 (UniProt O15027)
inactive: [1] -0.013 | [2] -0.005 | [3] 0.067 | [4] 0.036 | [5] 0.011

Reprinted at random: 2 entries already listed.
SEC31A (UniProt D6REX3)
inactive: [1] -0.021 | [2] 0.024 | [3] 0 | [4] 0.008 | [5] 0.016

SEH1L isoform 1 (UniProt Q96EE3)
inactive: [1] 0.016 | [2] 0.031 | [3] -0.045 | [4] -0.041 | [5] -0.028

Later entries:

SEC11A (UniProt P67812)
inactive: [1] -0.037 | [2] 0.057 | [3] 0.07 | [4] -0.067 | [5] 0.015

SCYL2 (UniProt Q6P3W7)
inactive: [1] -0.027 | [2] 0.016 | [3] 0.02 | [4] 0.001 | [5] -0.042

SECISBP2 (UniProt Q96T21)
inactive: [1] -0.106 | [2] 0.085 | [3] -0.039 | [4] -0.088 | [5] 0.081

SASS6 (UniProt Q6UVJ0)
inactive: [1] -0.01 | [2] 0.028 | [3] 0 | [4] 0.021 | [5] 0.037

SCAP (UniProt Q12770)
inactive: [1] -0.011 | [2] -0.026 | [3] 0.095 | [4] -0.015 | [5] -0.007

SAMM50 (UniProt Q9Y512)
inactive: [1] 0.027 | [2] -0.024 | [3] 0 | [4] 0.01 | [5] -0.013

Copied from the results shown (two entries):
SECISBP2 (UniProt Q96T21)
inactive: [1] -0.106 | [2] 0.085 | [3] -0.039 | [4] -0.088 | [5] 0.081

SASS6 (UniProt Q6UVJ0)
inactive: [1] -0.01 | [2] 0.028 | [3] 0 | [4] 0.021 | [5] 0.037

Additional records follow:

SEC24A (UniProt O95486)
inactive: [1] 0.022 | [2] -0.009 | [3] 0.009 | [4] -0.008 | [5] 0.073

SEPTIN8 (UniProt Q92599)
inactive: [1] -0.019 | [2] 0.007 | [3] -0.008 | [4] 0.003 | [5] 0.048

SCAI isoform 2 (UniProt Q8N9R8)
inactive: [1] -0.271 | [2] -0.104 | [3] -0.055 | [5] 0.183

SAFB2 (UniProt K7EQU4)
inactive: [1] 0.03 | [2] 0.1 | [4] -0.148

SAMD1 (UniProt Q6SPF0)
inactive: [4] -0.052 | [5] 0.108
